Results deposited as PubChem BioAssay AID1259405 (NCATS, 2018)

Aim: 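Mouse-designed siRNAs used to find CHO productivity engineering targets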 (primary screen)
Cell system: Chinese hamster CHO-K1 ovary cells with stable secreted eGFP expression
Reagents: single siRNA against mouse genes, 0.8 pmol siRNA per well (2 µl of 400 nM stock)
Duration: 3 days
Detection: 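Per-well intracellular GFP measured by laser scanning cytometry, plus viability from ATP luminescence, each relative to plate median of non-targeting control wells, in %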
Direction: GFP, % of control: higher = more GFP per well, higher productivity; viability (ATP), % of control: higher = more viable cells (more ATP)
Call rule: 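Called active when intracellular GFP, relative to negative control, is at or above 120%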
This is a random part of about 50,000 deposited reagents. In the full data, about 4,000 (8%) got an active call. 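Mouse siRNA library applied to hamster cells; one well for each siRNA.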 The numbers tell different reagents against one gene apart.

For Adamts8 #1, the entry reads GFP, % of control 75.5; viability (ATP), % of control 94.9; inactive.
Knock-down of Adamts8 #2 resulted in: GFP, % of control 36; viability (ATP), % of control 43; inactive.
Against Adamts8 #3, the values are GFP, % of control 89.5; viability (ATP), % of control 76; inactive.
Snai2 #1 gave GFP, % of control 63.2; viability (ATP), % of control 54.2; inactive.
After knock-down of Snai2 #2 the results were GFP, % of control 81.7; viability (ATP), % of control 76.6; inactive.
Srpk3 showed GFP, % of control 51.1; viability (ATP), % of control 51; inactive.
Against Anxa9 #1, the values are GFP, % of control 82; viability (ATP), % of control 93.9; inactive.
For Anxa9 #2, the entry reads GFP, % of control 81.9; viability (ATP), % of control 85; inactive.
Depletion of Anxa9 #3 gave: GFP, % of control 56.3; viability (ATP), % of control 42.2; inactive.
Against Capn12 #1 the deposit lists GFP, % of control 72.9; viability (ATP), % of control 85.1; inactive.
After knock-down of Capn12 #2 the results were GFP, % of control 21; viability (ATP), % of control 33.8; inactive.
With knock-down of Capn12 #3, the screen gave GFP, % of control 99.8; viability (ATP), % of control 77.7; inactive.
For Prr36 #1, the values are GFP, % of control 67.2; viability (ATP), % of control 80.9; inactive.
Prr36 #2 gave GFP, % of control 80.8; viability (ATP), % of control 79.3; inactive.
After knock-down of Prr36 #3, the screen gave GFP, % of control 56.7; viability (ATP), % of control 61.8; inactive.
Knock-down of Mier2 #1 came out at: GFP, % of control 195; viability (ATP), % of control 108; active.
Mier2 #2 gave GFP, % of control 78.6; viability (ATP), % of control 75.9; inactive.
For Mier2 #3 the deposit lists GFP, % of control 65.6; viability (ATP), % of control 66.1; inactive.
Knock-down of Klf7 #1 came out at: GFP, % of control 61.6; viability (ATP), % of control 99; inactive.
Klf7 #2 gave GFP, % of control 65.8; viability (ATP), % of control 76.3; inactive.
With knock-down of Klf7 #3, the record shows GFP, % of control 57.6; viability (ATP), % of control 85.1; inactive.
With knock-down of Ctnnb1 #1 the results were GFP, % of control 66.5; viability (ATP), % of control 82.1; inactive.
After knock-down of Ctnnb1 #2, the screen gave GFP, % of control 83.9; viability (ATP), % of control 84.7; inactive.
After knock-down of Cnot9 #1 the results were GFP, % of control 72.8; viability (ATP), % of control 79; inactive.
Silencing of Cnot9 #2 resulted in: GFP, % of control 76.6; viability (ATP), % of control 75.3; inactive.
With knock-down of Cnot9 #3, the screen gave GFP, % of control 76.9; viability (ATP), % of control 95.4; inactive.
Vmn1r180 #1 showed GFP, % of control 103; viability (ATP), % of control 79.4; inactive.
After knock-down of Vmn1r180 #2, the record shows GFP, % of control 91.5; viability (ATP), % of control 92.5; inactive.
With knock-down of Vmn1r180 #3 the results were GFP, % of control 30.1; viability (ATP), % of control 52.6; inactive.
Depletion of Eea1 #1 came out at: GFP, % of control 43.7; viability (ATP), % of control 47.6; inactive.
For Eea1 #2, the entry reads GFP, % of control 101; viability (ATP), % of control 69.3; inactive.
After knock-down of Eea1 #3, the record shows GFP, % of control 99.3; viability (ATP), % of control 77.7; inactive.
Against Epop #1, the entry reads GFP, % of control 56.3; viability (ATP), % of control 74; inactive.
Depletion of Epop #2 came out at: GFP, % of control 142; viability (ATP), % of control 62.1; active.
Epop #3 showed GFP, % of control 170; viability (ATP), % of control 75.3; active.
Depletion of Pdgfb #1 came out at: GFP, % of control 81; viability (ATP), % of control 80; inactive.
Against Pdgfb #2 the deposit lists GFP, % of control 51.7; viability (ATP), % of control 59.6; inactive.
Silencing of Pdgfb #3 gave: GFP, % of control 102; viability (ATP), % of control 78.1; inactive.
Against Ppip5k2 #1, the values are GFP, % of control 31; viability (ATP), % of control 18.7; inactive.
Silencing of Ppip5k2 #2 came out at: GFP, % of control 77.2; viability (ATP), % of control 92; inactive.
Depletion of Ppip5k2 #3 gave: GFP, % of control 114; viability (ATP), % of control 115; inactive.
Rab3a #1 gave GFP, % of control 48.2; viability (ATP), % of control 63.6; inactive.
Depletion of Rab3a #2 resulted in: GFP, % of control 53.9; viability (ATP), % of control 74.8; inactive.
Depletion of Or4g7 #1 came out at: GFP, % of control 84; viability (ATP), % of control 72.6; inactive.
Against Or4g7 #2 the deposit lists GFP, % of control 63.5; viability (ATP), % of control 81.9; inactive.
For Or4g7 #3, the values are GFP, % of control 62.7; viability (ATP), % of control 104; inactive.
Or4k2 #1 scored GFP, % of control 79.9; viability (ATP), % of control 67.7; inactive.
Knock-down of Or4k2 #2 came out at: GFP, % of control 80.7; viability (ATP), % of control 60.1; inactive.
Knock-down of Or4k2 #3 resulted in: GFP, % of control 76.3; viability (ATP), % of control 111; inactive.
Rad51c #1 gave GFP, % of control 94.4; viability (ATP), % of control 51.2; inactive.
For Rad51c #2, the entry reads GFP, % of control 78.1; viability (ATP), % of control 92.3; inactive.
For Rad51c #3 the deposit lists GFP, % of control 54.1; viability (ATP), % of control 42.3; inactive.

Single entries from the list.
For “activity call”, Pdgfb #1 shows inactive
Under “GFP, % of control”, Cnot9 #3 has 76.9
Result for Epop #3 under “GFP, % of control”: 170
